The source of these data is PMC10922812 (Antiviral research, 2024).

In data set [1] the test system is SVGA cells. Briefly: MTS cell viability assay, SVGA cells. The following applies: SVGA 48 h, vs DMSO control. The data set is classed as cell-based, human.
Data set [2] concerns HEK-2C cells. As to the kind of experiment: MTS cell viability assay, HEK-2C cells. It counts as cell-based. The following applies: HEK-2C 48 h, vs DMSO control. For orientation: Tetrazolium dyes change colour on reduction, which living cells bring about.
For data set [3], the system named is Vero cells. As to the kind of experiment: MTS cell viability assay, Vero cells. It counts as cell-based, African green monkey. The following applies: Vero 48 h, vs DMSO control.
Data set [4] has as its system RPTEC. As to the kind of experiment: MTS cell viability assay, RPTEC. The following applies: RPTEC 48 h, vs DMSO control. The data set is classed as cell-based, human.

Each structure is given as a SMILES string.

Consider `COC(=O)C1=C(C)NC(C)=C(C(=O)OC)C1c1ccccc1[N+](=O)[O-]` [Nifedipine], for which, in data set [1], the “Concentration with % Viability < 80%” value turned out to be 200 µM, the “Concentration with % Viability ≥ 80%” value was determined as 150 µM and the “Concentration with % Viability ≥ 85%” value stood at 75 µM. For the same compound, in data set [2], the “Concentration with % Viability ≥ 95%” value came to 100 µM and the “Concentration with % Viability ≥ 100%” value was 50 µM. Besides, in data set [3], the “Concentration with % Viability ≥ 85%” value turned out to be 100 µM, the “Concentration with % Viability ≥ 95%” value was found to be 75 µM and the “Concentration with % Viability ≥ 100%” value amounted to 20 µM. Also, in data set [4], the “Concentration with % Viability ≥ 80%” value came out at 100 µM and the “Concentration with % Viability ≥ 85%” value is 50 µM.
